Experimental findings from publication PMC11597879, “In Silico and In Vitro Investigation of Cytotoxicity and Apoptosis of Acridine/Sulfonamide Hybrids Targeting Topoisomerases I and II” (Pharmaceuticals, 2024) are described below.

Molecules are shown by their SMILES. “And” between values parts separate entries of the source, which are not always exact repeats. Equal values may be shown once. A value given as a limit tells only on which side of the number the result lay.

Common to all, as to assay type: cell-based, human
In one data set the test system is HepG2 cells. As to the kind of experiment: MTT antiproliferative assay, HepG2. The conditions noted are these: IC50 THLE-2 / IC50 HePG2.
For a further data set, the system named is MCF-7 cells. As to the kind of experiment: MTT antiproliferative assay, MCF-7. The conditions noted are these: IC50 THLE-2 / IC50 MCF-7.
The test system of a further data set is HCT-116 cells. Nature of the data set: MTT antiproliferative assay, HCT-116. Particulars: IC50 THLE-2 / IC50 HCT-116. (Tetrazolium dyes change colour on reduction, which living cells bring about.)

In the case of `CC(=O)Nc1ccc(S(=O)(=O)Nc2ccc(Cc3ccc(Nc4c5ccccc5nc5ccccc45)cc3)cc2)cc1` [Compound 7c], the “SI HePG2” value in the data set with HepG2 cells was > 3 and 3.35. For the same molecule, the “SI MCF-7” value in the data set with MCF-7 cells was > 3 and 3.57. For the same molecule, the “SI HCT-116” value in the data set with HCT-116 cells is on record as 2.56.
Turning to `Cc1ccc(S(=O)(=O)Nc2ccc(Nc3c4ccccc4nc4ccccc34)cc2)cc1` [Compound 8b], in the data set on HepG2 cells, the “SI HePG2” value is > 3 and 3.82. Also, the “SI HCT-116” value in the data set on HCT-116 cells was > 3 and 5.91.
